## Library screen at single concentrations

By UniProt entry, the sequences of proteins in these tests, tags left out. Residues count along the entry.
UniProt Q8IDJ8, 1-583: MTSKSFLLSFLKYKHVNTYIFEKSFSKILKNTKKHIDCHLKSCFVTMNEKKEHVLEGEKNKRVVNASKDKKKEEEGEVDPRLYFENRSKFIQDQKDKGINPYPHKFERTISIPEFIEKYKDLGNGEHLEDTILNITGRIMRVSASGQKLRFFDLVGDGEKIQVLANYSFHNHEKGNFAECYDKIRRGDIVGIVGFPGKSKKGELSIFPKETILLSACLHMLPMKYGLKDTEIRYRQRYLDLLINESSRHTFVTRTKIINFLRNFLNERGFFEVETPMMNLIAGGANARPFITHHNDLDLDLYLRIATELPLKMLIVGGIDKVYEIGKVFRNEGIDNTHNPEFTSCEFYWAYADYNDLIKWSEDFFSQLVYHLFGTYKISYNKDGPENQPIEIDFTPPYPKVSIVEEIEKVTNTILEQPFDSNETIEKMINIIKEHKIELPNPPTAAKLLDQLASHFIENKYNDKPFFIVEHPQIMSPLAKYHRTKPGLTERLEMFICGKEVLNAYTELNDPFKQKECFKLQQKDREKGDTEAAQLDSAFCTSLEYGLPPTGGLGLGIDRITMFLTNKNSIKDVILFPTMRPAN

A: 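Whole-parasite assay of Trypanosoma brucei over 72 hours; the read-out is not stated. Concentration: 30 µM. The record gives no direction; compounds that gave an IC50 in retests scored well above the rest, so higher reads as stronger inhibition. Values scatter widely below zero; nearly all retest evidence comes from the higher of the two concentrations used. Of about 64,000 compounds tested this way, about 940 (1.5%) reached 50% or more in at least one test.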
B: 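Enzyme assay of the cytosolic lysyl-tRNA synthetase in 384-well plates, read by luminescence. Target: Lysine-tRNA ligase, Plasmodium falciparum 3D7 (UniProt Q8IDJ8). Compounds at 30 µM. Higher reads as stronger inhibition, judged from the few compounds that gave an IC50. Size under these conditions: about 69,000 compounds, about 49 of them at 50% or above in at least one test.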

The filed quantity is “Percent Effect” (%). The record does not define 0% and 100%; most values in the screen are far below 50% and negative numbers occur (in some assays of this library far below -100). The compounds are a random part of those screened. A dash means the value is not listed here; it may have been measured.

Compound: Clc1snnc1CN(Cc1cccs1)C1CC1
A: -40.4
B: 2.43

Compound: CC(C)NCc1nc(-c2ccc3c(c2)OCO3)c[nH]1
B: 5.822

Compound: Cc1ccnc2c1NC(=O)CN2C(=O)CCC(F)(F)F
A: -1.47
B: 3.966

Compound: CCCc1noc(-c2cn(CC(=O)N(CC)CC)nn2)n1
A: -69.73
B: 3.818

Compound: Cc1cc(CSc2nc(=O)ccn2C(C)C)no1
A: -52.68
B: 0.05962

Compound: CC[C@H]1N(CC2CCOCC2)CCC[C@]12CCC(=O)N2
B: 7.613

Compound: CCOC(=O)COc1nc(CC(C)C)c2c(c1C#N)CCC2
A: -43.47
B: 0.35

Compound: Cc1noc(C)c1-c1n[nH]c2c1CN(S(=O)(=O)c1ccsc1)CC2
A: 31.82
B: -3.966

Compound: O=C(O)C(F)(F)F.[H][C@@]12COC[C@H](C(=O)N3CCOCC3)[C@]1([H])CN(Cc1c(C)noc1C)C2
A: -95.08

Compound: CCCN1CCC(Nc2nc(C)ns2)CC1
A: 9.778
B: 10.57

Compound: CCn1ncc2c1C(COC)CN(Cc1cnn(C)c1)C2 (stereo unspecified)
A: -31.32
B: 8.149

Compound: Cc1nnc(NCC2(c3ccccc3)CCOCC2)c(C#N)c1C
A: -28.76
B: 12.8

Compound: O=C(CNCc1ccccc1Cn1cccn1)Nc1cnccn1
A: -24.46
B: 4.424

Compound: CN(C)C[C@H]1OC[C@@H]2CCN(C(=O)c3ccco3)C[C@@H]21
B: -1.078

Compound: CN(C)CCO[C@H]1CN(Cc2ccoc2)[C@@H]2COC[C@H]12
B: 1.966

Compound: Cc1nnc(SCCCNc2cc(C3CC3)ncn2)s1
A: -31.57
B: -0.7585

Compound: CCCNC(=O)C[C@@H]1CCN(C(=O)c2cccnc2)C[C@@H]1CC
A: -41.08
B: -2.361

Compound: CCOc1ccccc1CN(C)C(=O)CN1C(=O)OC[C@@H]1C(C)C
A: -54.53
B: 5.336

Compound: CC(C)c1cnc(CNc2c(F)cccc2-n2cccn2)o1
A: -39.43
B: 3.553

Compound: CCc1nc(CN2CCCN(C(=O)c3cccn3C)CC2)cs1
A: 0.6537
B: 3.224

Compound: CC(NC(=O)CSCC#N)c1ccc(F)cc1 (stereo unspecified)
A: -22.98
B: -0.344

Compound: COC(=O)c1ccc(Cn2nc(C)cc2C)c(OC)c1
A: 15.91
B: 6.195

Compound: Cc1nc(CN2CCCC(c3cnccn3)C2)cs1 (stereo unspecified)
A: 5.151
B: 0.1139

Compound: CCn1nc(CC(C)C)cc1C(=O)N1CCOCC(O)C1 (stereo unspecified)
A: 2.201
B: 4.812

Compound: Cc1nc(CN2CCOCC3(CCN(c4ncccn4)CC3)C2)cs1.O=C(O)C(F)(F)F
A: -20.34

Compound: O=C(CCn1cccn1)NCC(c1cccs1)N1CCCC1 (stereo unspecified)
A: -22.09
B: 2.058

Compound: CO[C@H]1CN(Cc2cc(F)ccc2F)CC[C@@]12CCCO2
A: -39.21
B: 4.271

Compound: CC(=O)N1CCCN(C(=O)NCCCNS(C)(=O)=O)CC1
A: 19.47
B: 3.062

Compound: CC(=O)N1CCC2(CC1)COCCN2CCN(C)C
B: 5.007

Compound: Cc1nc(O)cc(C2(C)CCCNC2)n1 (stereo unspecified)
B: 1.669

Compound: CCC(=O)N1CCN(C(=O)NCCOc2ccc3c(c2)CCC3)CC1
A: 17.01
B: 1.185

Compound: CN(C)C(=O)c1coc(COc2ccccc2)n1
A: 8.373
B: 3.897

Compound: CC(C)(C)c1nc(CN(Cc2cccs2)CC2CCCO2)no1 (stereo unspecified)
A: 6.628
B: 0.3162

Compound: O=C(N1CCOCC1)N1CCc2ncc(CN3CCCCC3)n2CC1.O=C(O)C(F)(F)F
A: -188.9

Compound: O=C(O)C(F)(F)F.[H][C@@]12CCN(S(=O)(=O)c3cccc(C)c3)C[C@]1([H])[C@@H](CN(C)C)OC2
A: 25.11

Compound: CC1COCCN1C(=O)NCCn1ccnc1 (stereo unspecified)
A: 2.462
B: 3.918

Compound: O=C(Cc1c[nH]c2ccccc12)N1CCC(Nc2cccnc2)CC1
A: -9.973
B: -0.6987

Compound: O=C(Cc1ccccc1F)N1CCN(C(=O)c2ccoc2)CC1
A: 17.75
B: 4.423

Compound: CCN(CCO)C[C@@H]1CN(C(=O)c2sc3ccccc3c2C)C[C@@H]1CO
A: -37
B: -3.53

For reference, 2 entries once more:

Compound,A,B
Cc1nnc(NCC2(c3ccccc3)CCOCC2)c(C#N)c1C,-28.76,12.8
O=C(N1CCOCC1)N1CCc2ncc(CN3CCCCC3)n2CC1.O=C(O)C(F)(F)F,-188.9,-

Measurements from “University of Dundee, Small-Polar-MMV Screening Library” (2021), ChEMBL document CHEMBL3988442.